Consider 2 molecules from publication PMC10102026.

Chains of the proteins cited; added tags and fusions are not shown.
UniProt P55060: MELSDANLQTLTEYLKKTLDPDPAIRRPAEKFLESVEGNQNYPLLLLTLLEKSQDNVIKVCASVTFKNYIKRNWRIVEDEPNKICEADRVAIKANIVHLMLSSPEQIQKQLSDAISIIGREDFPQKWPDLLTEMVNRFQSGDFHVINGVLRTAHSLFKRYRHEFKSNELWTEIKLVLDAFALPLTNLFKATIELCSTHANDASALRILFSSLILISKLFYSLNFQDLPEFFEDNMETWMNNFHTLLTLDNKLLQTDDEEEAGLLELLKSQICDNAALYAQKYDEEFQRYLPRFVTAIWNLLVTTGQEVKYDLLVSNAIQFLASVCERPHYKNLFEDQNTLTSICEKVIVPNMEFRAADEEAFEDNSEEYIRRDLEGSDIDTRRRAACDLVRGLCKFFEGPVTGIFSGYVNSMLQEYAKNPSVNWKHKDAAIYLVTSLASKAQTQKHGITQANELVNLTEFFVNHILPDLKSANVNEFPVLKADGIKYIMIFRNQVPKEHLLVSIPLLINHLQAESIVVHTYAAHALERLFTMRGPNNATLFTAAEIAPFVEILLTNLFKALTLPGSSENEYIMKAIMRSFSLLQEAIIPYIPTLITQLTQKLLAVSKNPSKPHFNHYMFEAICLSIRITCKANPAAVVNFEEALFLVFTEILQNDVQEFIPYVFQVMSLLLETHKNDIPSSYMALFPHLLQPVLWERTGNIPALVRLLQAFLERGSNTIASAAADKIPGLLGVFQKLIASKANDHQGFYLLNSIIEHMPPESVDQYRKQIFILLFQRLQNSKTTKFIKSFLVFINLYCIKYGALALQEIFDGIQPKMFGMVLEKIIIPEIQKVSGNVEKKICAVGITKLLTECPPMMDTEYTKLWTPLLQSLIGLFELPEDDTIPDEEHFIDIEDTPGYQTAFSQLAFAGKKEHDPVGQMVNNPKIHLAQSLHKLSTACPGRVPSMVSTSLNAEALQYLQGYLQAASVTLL
UniProt Q96B97: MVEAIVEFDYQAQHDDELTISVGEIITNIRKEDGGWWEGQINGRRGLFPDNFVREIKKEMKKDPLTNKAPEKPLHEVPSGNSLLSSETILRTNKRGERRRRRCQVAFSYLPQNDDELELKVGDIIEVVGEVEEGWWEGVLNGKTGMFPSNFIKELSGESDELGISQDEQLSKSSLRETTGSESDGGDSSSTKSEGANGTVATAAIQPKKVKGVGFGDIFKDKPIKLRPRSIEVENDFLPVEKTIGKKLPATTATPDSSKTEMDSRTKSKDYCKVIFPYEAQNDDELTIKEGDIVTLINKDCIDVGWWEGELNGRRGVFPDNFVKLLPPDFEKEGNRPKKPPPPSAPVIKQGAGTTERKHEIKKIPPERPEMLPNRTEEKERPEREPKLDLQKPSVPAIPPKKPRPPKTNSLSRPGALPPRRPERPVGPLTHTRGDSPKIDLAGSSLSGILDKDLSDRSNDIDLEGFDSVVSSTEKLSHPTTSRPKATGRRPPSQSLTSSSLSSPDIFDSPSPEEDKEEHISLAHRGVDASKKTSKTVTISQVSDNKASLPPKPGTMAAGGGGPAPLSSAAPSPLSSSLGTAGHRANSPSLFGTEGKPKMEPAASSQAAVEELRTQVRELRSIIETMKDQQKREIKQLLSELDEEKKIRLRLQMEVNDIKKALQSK

Experiment [1] deals with T1, 3xFLAG-BirA*-NUP37 (UniProt Q8NFH4).
T1 sequence: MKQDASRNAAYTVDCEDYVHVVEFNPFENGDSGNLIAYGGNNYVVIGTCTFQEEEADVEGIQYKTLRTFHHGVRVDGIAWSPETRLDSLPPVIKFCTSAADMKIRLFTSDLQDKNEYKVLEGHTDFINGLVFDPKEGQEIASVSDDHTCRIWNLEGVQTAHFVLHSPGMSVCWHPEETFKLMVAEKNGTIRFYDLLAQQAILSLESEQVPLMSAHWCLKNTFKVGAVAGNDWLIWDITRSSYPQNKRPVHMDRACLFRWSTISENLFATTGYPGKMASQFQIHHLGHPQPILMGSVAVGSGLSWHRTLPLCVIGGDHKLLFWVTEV
Put plainly: proximity labelling; B2B1 overlay cultures expressing inducible BirA*-CSE1L or BirA*-NUP37; 0.5 µM AP21967 24 h, then 50 µM biotin 24 h; RIPA lysis; two-step purification (anti-biotin agarose, then streptavidin beads), SDS-PAGE, mass spectrometry.

Experiment [2] addresses 3xFLAG-BirA*-CSE1L (human) (UniProt P55060). Described as above.
Experiment [3] addresses T1, 3xFLAG-BirA*-NUP37. Put plainly: proximity labelling; B2B1 cells expressing inducible FLAG-tagged BirA*-CSE1L or BirA*-NUP37, ±0.5 µM AP for 24 h before biotinylation for 24 h; anti-biotin immunoprecipitates immunoblotted for the targets; independent samples, n = 3.

These are yes or no findings as the source states them, for the method shown. Binding seen in cells or lysates may run through a third protein. Here binding means that the protein was enriched with, or labelled near, the bait; the list need not be complete. For part of these data: Sequences can lack the tags named with a protein.

On to “EGFR endocytic-trafficking adaptor SH3KBP1 (from UniProt Q96B97 1-665)”, for which the binding entry (with 3xFLAG-BirA*-NUP37 [1]; in experiment [2]) was “binds” each time.

B1: NUP160 (protein, UniProt Q12769 1-1436)
chain: MLHLSAAPPAPPPEVTATARPCLCSVGRRGDGGKMAAAGALERSFVELSGAERERPRHFREFTVCSIGTANAVAGAVKYSESAGGFYYVESGKLFSVTRNRFIHWKTSGDTLELMEESLDINLLNNAIRLKFQNCSVLPGGVYVSETQNRVIILMLTNQTVHRLLLPHPSRMYRSELVVDSQMQSIFTDIGKVDFTDPCNYQLIPAVPGISPNSTASTAWLSSDGEALFALPCASGGIFVLKLPPYDIPGMVSVVELKQSSVMQRLLTGWMPTAIRGDQSPSDRPLSLAVHCVEHDAFIFALCQDHKLRMWSYKEQMCLMVADMLEYVPVKKDLRLTAGTGHKLRLAYSPTMGLYLGIYMHAPKRGQFCIFQLVSTESNRYSLDHISSLFTSQETLIDFALTSTDIWALWHDAENQTVVKYINFEHNVAGQWNPVFMQPLPEEEIVIRDDQDPREMYLQSLFTPGQFTNEALCKALQIFCRGTERNLDLSWSELKKEVTLAVENELQGSVTEYEFSQEEFRNLQQEFWCKFYACCLQYQEALSHPLALHLNPHTNMVCLLKKGYLSFLIPSSLVDHLYLLPYENLLTEDETTISDDVDIARDVICLIKCLRLIEESVTVDMSVIMEMSCYNLQSPEKAAEQILEDMITIDVENVMEDICSKLQEIRNPIHAIGLLIREMDYETEVEMEKGFNPAQPLNIRMNLTQLYGSNTAGYIVCRGVHKIASTRFLICRDLLILQQLLMRLGDAVIWGTGQLFQAQQDLLHRTAPLLLSYYLIKWGSECLATDVPLDTLESNLQHLSVLELTDSGALMANRFVSSPQTIVELFFQEVARKHIISHLFSQPKAPLSQTGLNWPEMITAITSYLLQLLWPSNPGCLFLECLMGNCQYVQLQDYIQLLHPWCQVNVGSCRFMLGRCYLVTGEGQKALECFCQAASEVGKEEFLDRLIRSEDGEIVSTPRLQYYDKVLRLLDVIGLPELVIQLATSAITEAGDDWKSQATLRTCIFKHHLDLGHNSQAYEALTQIPDSSRQLDCLRQLVVVLCERSQLQDLVEFPYVNLHNEVVGIIESRARAVDLMTHNYYELLYAFHIYRHNYRKAGTVMFEYGMRLGREVRTLRGLEKQGNCYLAALNCLRLIRPEYAWIVQPVSGAVYDRPGASPKRNHDGECTAAPTNRQIEILELEDLEKECSLARIRLTLAQHDPSAVAVAGSSSAEEMVTLLVQAGLFDTAISLCQTFKLPLTPVFEGLAFKCIKLQFGGEAAQAEAWAWLAANQLSSVITTKESSATDEAWRLLSTYLERYKVQNNLYHHCVINKLLSHGVPLPNWLINSYKKVDAAELLRLYLNYDLLEEAVDLVSEYVDAVLGKGHQYFGIEFPLSATAPMVWLPYSSIDQLLQALGENSANSHNIALSQKILDKLEDYQQKVDKATRDLLYRRTL
As for B1, in the experiment with 3xFLAG-BirA*-NUP37 [3], the binding entry was “binds”.
